PubChem BioAssay AID504808 | Drosophila RNAi Screening Center – 2011
In all, the deposit lists about 21,000 reagents; this is a random part of those that have a named target and a result. In the full data, 18 (0.084%) were called active. 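Raw counts without plate normalisation, one of two replicates; the ratio scores behind the calls were not deposited.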 Reagents against one gene are numbered here. Not given: the amount of reagent, the time to read-out.

- Test: 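Genes whose loss lifts activity of an E2F-responsive reporter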 (primary screen)
- Cell system: Drosophila S2 cells
- Reagents: long dsRNA against Drosophila genes
- Read-out: 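Dual luciferase plate measurements; E2F-specific signal taken as firefly over Renilla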
- Reading the numbers: E2F firefly: higher = more E2F reporter activity; Renilla normaliser: higher = more normaliser reporter signal
- Active means: 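a knock-down counted as active when the firefly/Renilla E2F signal rose above 50%, a threshold chosen arbitrarily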

Mrm2 (GeneID 42359) | E2F firefly, rep 1 = 1.45e5; Renilla normaliser, rep 1 = 6401; activity call = inactive
CG13202 (GeneID 36222) | E2F firefly, rep 1 = 97941; Renilla normaliser, rep 1 = 4246; activity call = inactive
RhoGAP5A (GeneID 31473) | E2F firefly, rep 1 = 7477; Renilla normaliser, rep 1 = 724; activity call = inactive
CG14234 (GeneID 32988) #1 | E2F firefly, rep 1 = 66044; Renilla normaliser, rep 1 = 2672; activity call = inactive
CG14234 (GeneID 32988) #2 | E2F firefly, rep 1 = 1.28e5; Renilla normaliser, rep 1 = 6681; activity call = inactive
CG5849 (GeneID 42556) | E2F firefly, rep 1 = 1.36e5; Renilla normaliser, rep 1 = 7551; activity call = inactive
Ac78C (GeneID 40333) #1 | E2F firefly, rep 1 = 79982; Renilla normaliser, rep 1 = 4600; activity call = inactive
Ac78C (GeneID 40333) #2 | E2F firefly, rep 1 = 1.27e5; Renilla normaliser, rep 1 = 6591; activity call = inactive
Ac78C (GeneID 40333) #3 | E2F firefly, rep 1 = 1.42e5; Renilla normaliser, rep 1 = 7480; activity call = inactive
robo3 (GeneID 33314) #1 | E2F firefly, rep 1 = 1.60e5; Renilla normaliser, rep 1 = 5627; activity call = inactive
robo3 (GeneID 33314) #2 | E2F firefly, rep 1 = 1.58e5; Renilla normaliser, rep 1 = 5255; activity call = inactive
robo3 (GeneID 33314) #3 | E2F firefly, rep 1 = 1.49e5; Renilla normaliser, rep 1 = 4945; activity call = inactive
CG16721 (GeneID 31520) | E2F firefly, rep 1 = 9203; Renilla normaliser, rep 1 = 788; activity call = inactive
tst (GeneID 42813) | E2F firefly, rep 1 = 70803; Renilla normaliser, rep 1 = 3669; activity call = inactive
CG2225 (GeneID 35421) #1 | E2F firefly, rep 1 = 91991; Renilla normaliser, rep 1 = 4236; activity call = inactive
CG2225 (GeneID 35421) #2 | E2F firefly, rep 1 = 92466; Renilla normaliser, rep 1 = 4435; activity call = inactive
ana2 (GeneID 35878) | E2F firefly, rep 1 = 2701; Renilla normaliser, rep 1 = 238; activity call = inactive
Echs1 (GeneID 36536) | E2F firefly, rep 1 = 1.09e5; Renilla normaliser, rep 1 = 4881; activity call = inactive
CG5885 (GeneID 34314) | E2F firefly, rep 1 = 77598; Renilla normaliser, rep 1 = 3543; activity call = inactive
btl (GeneID 39564) | E2F firefly, rep 1 = 1.04e5; Renilla normaliser, rep 1 = 4741; activity call = inactive
alpha-Est4aPsi (GeneID 3772290) | E2F firefly, rep 1 = 68012; Renilla normaliser, rep 1 = 4322; activity call = inactive
CG8043 (GeneID 41030) | E2F firefly, rep 1 = 1.44e5; Renilla normaliser, rep 1 = 6962; activity call = inactive
CG3603 (GeneID 31289) | E2F firefly, rep 1 = 1.16e5; Renilla normaliser, rep 1 = 6435; activity call = inactive
Vps25 (GeneID 35847) | E2F firefly, rep 1 = 1.39e5; Renilla normaliser, rep 1 = 4636; activity call = inactive
CG14856 (GeneID 41790) | E2F firefly, rep 1 = 1.08e5; Renilla normaliser, rep 1 = 5808; activity call = inactive
CG34406 (retired record) (GeneID 33536) #1 | E2F firefly, rep 1 = 88375; Renilla normaliser, rep 1 = 4118; activity call = inactive
CG34406 (retired record) (GeneID 33536) #2 | E2F firefly, rep 1 = 1.68e5; Renilla normaliser, rep 1 = 5739; activity call = inactive
Cwc25 (GeneID 33460) | E2F firefly, rep 1 = 1.37e5; Renilla normaliser, rep 1 = 6065; activity call = inactive
Sp1 (GeneID 31913) #1 | E2F firefly, rep 1 = 80173; Renilla normaliser, rep 1 = 2245; activity call = inactive
Sp1 (GeneID 31913) #2 | E2F firefly, rep 1 = 1.19e5; Renilla normaliser, rep 1 = 5447; activity call = inactive
Cyp6t1 (GeneID 33127) | E2F firefly, rep 1 = 1.53e5; Renilla normaliser, rep 1 = 6759; activity call = inactive
CG12321 (GeneID 42174) | E2F firefly, rep 1 = 66963; Renilla normaliser, rep 1 = 2990; activity call = inactive
CG15256 (GeneID 34911) | E2F firefly, rep 1 = 1.07e5; Renilla normaliser, rep 1 = 4432; activity call = inactive
SerT (GeneID 37895) | E2F firefly, rep 1 = 1.12e5; Renilla normaliser, rep 1 = 4312; activity call = inactive
Cdc5 (GeneID 38062) | E2F firefly, rep 1 = 49353; Renilla normaliser, rep 1 = 3693; activity call = inactive
Ziz (GeneID 34030) #1 | E2F firefly, rep 1 = 1.47e5; Renilla normaliser, rep 1 = 5006; activity call = inactive
Ziz (GeneID 34030) #2 | E2F firefly, rep 1 = 1.58e5; Renilla normaliser, rep 1 = 5176; activity call = inactive
